Measurements reported in PubChem BioAssay AID1259276 (Sanger Institute, 2017)
Shown is an unselected part of 794 reagents. Over the whole deposit, 24 (3%) were called active. 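Calls come only from the siRNA-alone arm; drug synergy scores do not affect them.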 Viability is capped at 1. Further read-outs or replicates are left out here. Not given: the amount of reagent, the time to read-out.

- Aim: 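Kinase knock-downs that reduce colorectal cancer cell viability alone or with anchor drugs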 (primary screen)
- System: human C2BBe1 colorectal cancer cells
- Reagent: siRNA pool against human genes
- Treatment: DMSO vehicle, or one anchor drug: BYL719 at 1 µM, cetuximab at 5 µg/ml, or trametinib at 10 nM; exposure length not stated
- Measured: 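Cell viability as a fraction of non-targeting control wells, mean of replicates, also as a control-based robust z-score, plus a synergy score for each anchor drug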
- Reading the numbers: viability robust z-score, siRNA alone and viability vs control, siRNA alone: higher = more viable cells after knock-down; synergy score with BYL719: higher = stronger combined killing with BYL719
- Rule for the call: 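a siRNA pool tested without drug is essential if its viability robust z-score falls under -3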
- Meaning of the calls: active = essential (siRNA alone); inactive = no change (siRNA alone)

no.	gene	viability robust z-score, siRNA alone	viability vs control, siRNA alone	synergy score with BYL719	call
1	ACVR2A	0.472	1	0.164	inactive
2	ITPKB	0.472	1	0.0555	inactive
3	IP6K3	0.472	1	0.156	inactive
4	CNOT1	-0.298	0.951	0.0397	inactive
5	KDR	0.472	1	-0.0453	inactive
6	STAG2	0	0.97	-0.167	inactive
7	MAP3K19	0.472	1	0.0567	inactive
8	NUAK1	0.472	1	0.0203	inactive
9	N4BP2	0.472	1	-0.059	inactive
10	GNAS	0.472	1	-0.0832	inactive
11	MAGI1	0.472	1	0.113	inactive
12	PMVK	-3.79	0.731	-0.0653	active
13	MAP4K5	0.452	0.999	0.0339	inactive
14	GNE	-0.244	0.955	-0.13	inactive
15	PLK2	0.472	1	-0.0499	inactive
16	PRKACB	0.472	1	-0.0212	inactive
17	HUS1	0.472	1	-0.102	inactive
18	NUCKS1	0.472	1	-0.142	inactive
19	STK16	0.472	1	-0.142	inactive
20	BMX	0.472	1	-0.142	inactive
21	BMAL1	0.472	1	0.241	inactive
22	CEP290	0.472	1	-0.142	inactive
23	MED24	0.472	1	-0.142	inactive
24	AURKB	0.472	1	0.0891	inactive
25	PRKAR2B	0.472	1	0.371	inactive
26	IPPK	-2.06	0.84	-0.000612	inactive
27	TNNI3K	0.472	1	-0.142	inactive
28	AKT3	-1.14	0.898	0.213	inactive
29	CIT	0.472	1	0.00248	inactive
30	PRKAA2	0.472	1	0.0271	inactive
31	LYN	0.472	1	-0.136	inactive
32	MAPK9	0.472	1	-0.0131	inactive
33	AK7	-0.709	0.926	-0.0638	inactive
34	SPHK2	0.472	1	-0.113	inactive
35	NADK	-0.0381	0.968	0.108	inactive
36	BMP2K	-2.61	0.806	0.0681	inactive
37	NEK3	0.287	0.988	0.163	inactive
38	RPS6KA2	-1.88	0.851	0.159	inactive
39	STK24	-2.57	0.808	-0.069	inactive
40	PDIK1L	-0.63	0.931	0.0352	inactive
41	ATM	0.232	0.985	0.119	inactive
42	MARK2	0.472	1	-0.074	inactive
43	EXOSC10	0.472	1	-0.142	inactive
44	HIPK2	0.472	1	0.0533	inactive
45	PIK3CA	0.472	1	-0.0543	inactive
46	FGFR2	-0.947	0.911	0.092	inactive
47	INSRR	-4.21	0.705	-0.0396	active
48	STRADB	0.472	1	-0.0748	inactive
49	DLG2	0.472	1	-0.142	inactive
50	ZC3H11A	0.472	1	0.182	inactive

Records above whose target name begins with I or i (4):
gene	viability robust z-score, siRNA alone	viability vs control, siRNA alone	synergy score with BYL719	call
ITPKB	0.472	1	0.0555	inactive
IP6K3	0.472	1	0.156	inactive
IPPK	-2.06	0.84	-0.000612	inactive
INSRR	-4.21	0.705	-0.0396	active
